For experiment [1], the target named is human CD45 receptor on the surface of human T cells (human) (UniProt P08575). Description: pulse assay on human T cells, surface staining by flow cytometry (FIG. 18C). For orientation: In flow cytometry, cells or beads pass a laser one at a time.
Experiment [2] shares this target. Nature of the experiment: pulse incubation at 500 nM, anti-IL-15 staining by flow cytometry (FIG. 26).
For experiment [3] the target is unchanged. Nature of the experiment: pulse incubation of human CD3 T cells, anti-IL-15 staining by flow cytometry (FIG. 25).
Experiment [4] shares this target. Description: five-fold serial dilutions on activated human CD3 T cells, anti-IL-15 staining by flow cytometry (FIG. 31B).

Chains of the proteins cited; added tags and fusions are not shown. Lines headed by an entry give the natural chain unless they say otherwise; changes in a name come on top. Residues count along the entry.
UniProt P08575, residues 26-1306: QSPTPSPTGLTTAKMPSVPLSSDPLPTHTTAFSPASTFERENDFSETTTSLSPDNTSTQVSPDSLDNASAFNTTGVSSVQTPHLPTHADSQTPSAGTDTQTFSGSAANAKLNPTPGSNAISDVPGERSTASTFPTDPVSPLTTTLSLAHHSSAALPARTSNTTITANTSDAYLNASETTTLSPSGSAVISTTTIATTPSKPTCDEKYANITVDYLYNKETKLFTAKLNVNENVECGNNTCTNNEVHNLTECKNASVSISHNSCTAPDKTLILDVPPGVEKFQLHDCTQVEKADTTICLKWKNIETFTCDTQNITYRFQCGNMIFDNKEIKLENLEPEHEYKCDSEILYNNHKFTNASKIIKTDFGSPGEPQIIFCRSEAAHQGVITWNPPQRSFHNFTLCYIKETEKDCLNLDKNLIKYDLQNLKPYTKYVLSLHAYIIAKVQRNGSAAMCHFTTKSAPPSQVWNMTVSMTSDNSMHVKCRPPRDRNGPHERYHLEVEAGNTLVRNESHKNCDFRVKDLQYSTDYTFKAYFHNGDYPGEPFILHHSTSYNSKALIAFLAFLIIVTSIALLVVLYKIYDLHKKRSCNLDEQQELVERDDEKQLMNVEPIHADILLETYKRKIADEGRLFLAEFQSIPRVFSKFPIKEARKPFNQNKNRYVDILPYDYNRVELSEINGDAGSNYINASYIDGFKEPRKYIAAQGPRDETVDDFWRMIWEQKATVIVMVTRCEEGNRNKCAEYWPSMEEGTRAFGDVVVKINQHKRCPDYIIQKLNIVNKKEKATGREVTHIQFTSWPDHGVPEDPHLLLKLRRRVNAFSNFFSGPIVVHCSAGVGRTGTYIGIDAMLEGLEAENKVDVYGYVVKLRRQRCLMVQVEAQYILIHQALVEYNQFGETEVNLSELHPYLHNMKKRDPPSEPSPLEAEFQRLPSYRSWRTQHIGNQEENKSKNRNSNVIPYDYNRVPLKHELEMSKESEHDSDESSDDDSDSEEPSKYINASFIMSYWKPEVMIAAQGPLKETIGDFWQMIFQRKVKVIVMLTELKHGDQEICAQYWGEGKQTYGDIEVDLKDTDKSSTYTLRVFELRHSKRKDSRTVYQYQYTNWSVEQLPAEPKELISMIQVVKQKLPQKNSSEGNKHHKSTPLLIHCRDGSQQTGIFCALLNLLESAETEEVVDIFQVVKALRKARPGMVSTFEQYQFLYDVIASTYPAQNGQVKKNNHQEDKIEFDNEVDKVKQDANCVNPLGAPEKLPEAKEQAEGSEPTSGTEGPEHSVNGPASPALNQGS
UniProt Q13261: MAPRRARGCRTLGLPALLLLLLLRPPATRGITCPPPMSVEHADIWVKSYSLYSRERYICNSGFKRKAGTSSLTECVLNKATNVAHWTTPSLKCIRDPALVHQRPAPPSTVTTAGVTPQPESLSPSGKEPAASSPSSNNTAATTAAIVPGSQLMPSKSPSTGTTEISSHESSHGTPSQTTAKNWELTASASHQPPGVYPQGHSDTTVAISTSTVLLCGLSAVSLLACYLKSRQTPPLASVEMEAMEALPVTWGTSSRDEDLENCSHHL

These are yes or no findings as the source states them, for the method shown. Some results given as binding are weak or reduced against the parent protein; the word gives no strength.

For the substance “chBC8Fab IFM comprising IL-15-D61N (from UniProt Q13261 31-95)”, the binding entry in experiment [1] is “binds”.
For the substance “h9.4Fab-IL15/sushi (from UniProt Q13261 31-95)”, the binding entry in experiment [2], in experiment [3] and in experiment [4] was “binds” each time.
On to “chBC8Fab IFM comprising IL-15-Q108N (from UniProt Q13261 31-95)”, for which the binding entry in experiment [1] is “binds”.
